Consider 32 molecules from the supplement of paper PMC9549374.

Structures are written as SMILES. Some of the results follow. Cut-off read from the data, not from the text of the source: active = 2-fold of DMSO or more and inactive = the rest. Single values of this set are uncertain. Some low values are a fixed figure set by the source, not a measured ratio.

The subject of the assay is CM7/1-hgem mouse ES cell-derived cardiomyocytes. As to the kind of experiment: maximal number of mAG-hGem(1/110)-positive cardiomyocytes over 96 h, fold-change vs DMSO; higher = more cardiomyocyte cell cycle activity. The note with it: 1 µM; 96 (max over 12 h time points) h.
As for `OC[C@@H]1CCCN2CCCC[C@H]12`, the maximal number was inactive: 1. The figure for `O=c1[nH]c(=O)n(Cl)c(=O)n1Cl` is inactive: 1; for `CC1=C(O)C(=O)C=C2C1=CC=C1[C@@]2(C)CC[C@@]2(C)[C@@H]3C[C@](C)(C(=O)O)CC[C@]3(C)CC[C@]12C` it is inactive: 1; for `COc1cc([C@@H]2c3cc4c(c(O)c3C[C@H]3COC(=O)[C@@H]32)OCO4)cc(OC)c1OC` [beta-PELTATIN] it is inactive: 1. As for `COc1cc2c(cc1O)C[C@H]1c3c(cc(O)c(OC)c3-2)CCN1C`, the maximal number was inactive: 1. As for `CN1[C@H]2C[C@H](OC(=O)[C@H](CO)c3ccccc3)C[C@@H]1[C@@H](O)C2`, the maximal number is inactive: 1.

On to `O=[N+]([O-])O[C@@H]1CO[C@H]2[C@@H]1OC[C@@H]2O`, for which the maximal number is inactive: 1.

`COc1cc2c(cc1OC)-c1c(oc3c4c(ccc3c1=O)OC(C(C)C)C4)CO2` (configuration not stated): the maximal number was inactive: 1. As for `CC(=O)Oc1ccc(/C=C/c2cc(OC(C)=O)cc(OC(C)=O)c2)cc1`, the maximal number is inactive: 1. With `NCCc1ccc(O)cc1`, the maximal number was inactive: 1. Turning to `CC(C)(C#N)O[C@@H]1O[C@H](CO)[C@@H](O)[C@H](O)[C@H]1O`, the maximal number is inactive: 1. In the case of `CC(=O)O[C@@H]1C[C@@]2(C)[C@H](c3ccoc3)C[C@H]3O[C@]32[C@]2(C)C(=O)C(O)=C3C(C)(C)C(=O)C=C[C@]3(C)[C@@H]12`, the maximal number is inactive: 1. Take `NC(=O)CN1CCCC1=O`: the maximal number is inactive: 1.

In the case of `Cc1cccc(C)c1NC(=O)CN1CCCC1=O`, the maximal number was inactive: 1. As to `N.N.[Cl][Pt][Cl]`, the maximal number is inactive: 0.

Consider `COc1cc2c(cc1OC)[C@@]13CCN4CC5=CCO[C@H]6CC(=O)N2[C@H]1[C@H]6[C@H]5C[C@H]43`, for which the maximal number is inactive: 0.5.

With `CC(C)=CC1C(C(=O)OCc2cccc(Oc3ccccc3)c2)C1(C)C` (configuration not stated), the maximal number was inactive: 1.

Take `CC1(C)C2C[C@@H](O)[C@]3(C)C(CC[C@@]4(C)[C@H](c5ccoc5)OC(=O)[C@H]5O[C@]543)[C@@]2(C)[C@@H](O)C[C@H]1O` (some centres not stated): the maximal number is inactive: 1. As for `Cc1nccc2c1[nH]c1cc(O)ccc12`, the figure is inactive: 1; as for `O=c1[nH]c2ccccc2n1CCCN1CCC(n2c(=O)[nH]c3cc(Cl)ccc32)CC1`, inactive: 1.

In the case of `COc1cc2c3cc1Oc1c(OC)c(OC)cc4c1[C@@H](Cc1cccc(c1)Oc1ccc(c(O)c1)C[C@@H]3N(C)CC2)N(C)CC4`, the maximal number is inactive: 1. `C[C@@H]1C[C@@H]([C@H](O)CC2CC(=O)NC(=O)C2)C(=O)[C@@H](C)C1`: the maximal number was inactive: 1. The figure for `CC(=O)O[C@H]1C[C@@H](OC(C)=O)C(C)(C)C2C[C@@H](OC(C)=O)[C@]3(C)C(CC[C@@]4(C)[C@H](c5ccoc5)C(=O)[C@H]5O[C@]543)[C@]21C` (some centres not stated) is inactive: 1. As to `COc1cc2c(cc1OC)[C@@H]1C(=O)c3ccc(OC)c(CC=C(C)C)c3O[C@@H]1CO2`, the maximal number is inactive: 1. Regarding `Cc1cc2c(C(C)C)c(O)c(O)c(C=O)c2c(O)c1-c1c(C)cc2c(C(C)C)c(O)c(O)c(C=O)c2c1O`, the maximal number is inactive: 0. Take `CN1CCc2cc3c(cc2[C@H]1[C@@H]1OC(=O)c2c1ccc1c2OCO1)OCO3`: the maximal number is inactive: 1. For the molecule `CC(=O)O[C@H]1CC[C@@]2(C)[C@H](CC[C@@H]3[C@@H]2CC[C@]2(C)[C@@H](C4=CC(=O)OC4)[C@@H](OC(C)=O)C[C@]32O)C1`, the maximal number is inactive: 1.

On to `CC([C@H](O)c1ccccc1)N(C)C` (some centres not stated), for which the maximal number was inactive: 1. The figure for `CC(O)(CS(=O)(=O)c1ccc(F)cc1)C(=O)Nc1ccc(C#N)c(C(F)(F)F)c1` (configuration not stated) is inactive: 0. Turning to `CC[C@@H](C)C(=O)O[C@H]1[C@H](O)[C@H]2[C@@H](CN3C[C@@H](C)CC[C@H]3[C@@]2(C)O)[C@@H]2C[C@]34O[C@]5(O)[C@@H](OC(=O)[C@@](C)(O)CC)CC[C@@]3(C)[C@@H]5[C@@H](OC(C)=O)[C@@H](OC(C)=O)[C@H]4[C@@]21O`, the maximal number was inactive: 1. Consider `c1ccc2c(c1)[nH]c1cnccc12`, for which the maximal number is inactive: 1.

For the molecule `CC1(C)C(=O)C=C[C@]2(C)[C@H]3CC[C@@]4(C)[C@H](c5ccoc5)OC(=O)[C@H]5O[C@]54[C@]3(C)[C@H](O)C[C@@H]12`, the maximal number was inactive: 0.5.
